Results as given in PMC6834594, “Structure and regulation of ZCCHC4 in m^6A-methylation of 28S rRNA” (Nature Communications, 2019).
Where a chain is given by its changes, count along the chain named. The exact form of at least one protein or probe is not confirmed. At least one verdict rests on a figure or table, not on a statement of the authors. Tags and fusion partners may be left off the protein sequences shown.

What was measured:
Test in all cases: EMSA
ZCCHC4 R323A (human) = target: T1, ZCCHC4 R323A (human) (UniProt Q9H5U6); details: 0.3 uM protein, 0.6 uM RNA; EMSA: 20 mM Tris-HCl pH 7.5, 100 mM NaCl, 5% glycerol, 1 mM DTT, 4 C, 1 h; 0.3 uM RNA with 0-1.2 uM protein unless noted; 6% TBE native gel; recombinant protein; residues 24-513; protein details: His6-SUMO removed by ULP1; label: none (SYBR Gold stain)
T1 sequence (looked up): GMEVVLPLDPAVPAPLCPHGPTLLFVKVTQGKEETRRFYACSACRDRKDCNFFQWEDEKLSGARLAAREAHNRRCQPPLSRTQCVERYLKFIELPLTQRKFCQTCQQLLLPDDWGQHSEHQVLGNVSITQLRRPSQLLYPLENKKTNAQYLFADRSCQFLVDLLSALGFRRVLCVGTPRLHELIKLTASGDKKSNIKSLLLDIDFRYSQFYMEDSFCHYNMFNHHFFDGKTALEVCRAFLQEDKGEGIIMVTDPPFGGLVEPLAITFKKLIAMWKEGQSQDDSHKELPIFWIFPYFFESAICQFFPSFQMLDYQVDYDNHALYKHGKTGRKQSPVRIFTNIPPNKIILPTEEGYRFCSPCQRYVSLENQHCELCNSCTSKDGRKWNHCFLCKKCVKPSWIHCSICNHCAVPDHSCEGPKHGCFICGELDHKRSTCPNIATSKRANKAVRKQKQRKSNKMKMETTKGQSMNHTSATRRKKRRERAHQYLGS

ZCCHC4 W408A (human) = target: T2, ZCCHC4 W408A (human) (UniProt Q9H5U6); details: 0.3 uM protein, 0.6 uM RNA; EMSA: 20 mM Tris-HCl pH 7.5, 100 mM NaCl, 5% glycerol, 1 mM DTT, 4 C, 1 h; 0.3 uM RNA with 0-1.2 uM protein unless noted; 6% TBE native gel; recombinant protein; residues 24-513; protein details: His6-SUMO removed by ULP1; label: none (SYBR Gold stain)
T2 sequence (looked up): T1 sequence (looked up) with A300R, W385A

ZCCHC4 K403A (human) = target: T3, ZCCHC4 K403A (human) (UniProt Q9H5U6); details: 0.3 uM protein, 0.6 uM RNA; EMSA: 20 mM Tris-HCl pH 7.5, 100 mM NaCl, 5% glycerol, 1 mM DTT, 4 C, 1 h; 0.3 uM RNA with 0-1.2 uM protein unless noted; 6% TBE native gel; recombinant protein; residues 24-513; protein details: His6-SUMO removed by ULP1; label: none (SYBR Gold stain)
T3 sequence (looked up): T1 sequence (looked up) with A300R, K380A

ZCCHC4 H343A (human) = target: T4, ZCCHC4 H343A (human) (UniProt Q9H5U6); details: EMSA: 20 mM Tris-HCl pH 7.5, 100 mM NaCl, 5% glycerol, 1 mM DTT, 4 C, 1 h; 0.3 uM RNA with 0-1.2 uM protein unless noted; 6% TBE native gel; recombinant …; residues 24-513; protein details: His6-SUMO removed by ULP1; label: none (SYBR Gold stain)
T4 sequence (looked up): T1 sequence (looked up) with A300R, H320A

ZCCHC4 L345A (human) = target: T5, ZCCHC4 L345A (human) (UniProt Q9H5U6); details: EMSA: 20 mM Tris-HCl pH 7.5, 100 mM NaCl, 5% glycerol, 1 mM DTT, 4 C, 1 h; 0.3 uM RNA with 0-1.2 uM protein unless noted; 6% TBE native gel; recombinant …; residues 24-513; protein details: His6-SUMO removed by ULP1; label: none (SYBR Gold stain)
T5 sequence (looked up): T1 sequence (looked up) with A300R, L322A

Measured: binding result

CGGUACACCUGUCAAACGGUAACGCAGGUG [30-mer 28S rRNA]
binds: ZCCHC4 R323A (human) | ZCCHC4 W408A (human) | ZCCHC4 K403A (human) | ZCCHC4 H343A (human) | ZCCHC4 L345A (human)
